Each number is a percent effect as filed.
How 0% and 100% were set is not recorded. Most values in the screen are low, and negative values occur.
The compounds are a random part of those screened.
Two or more numbers in one place are separate tests of the same structure; such repeats can differ widely.

By UniProt entry, the sequences of proteins in these tests, tags left out.
UniProt P9WFT3, whole entry: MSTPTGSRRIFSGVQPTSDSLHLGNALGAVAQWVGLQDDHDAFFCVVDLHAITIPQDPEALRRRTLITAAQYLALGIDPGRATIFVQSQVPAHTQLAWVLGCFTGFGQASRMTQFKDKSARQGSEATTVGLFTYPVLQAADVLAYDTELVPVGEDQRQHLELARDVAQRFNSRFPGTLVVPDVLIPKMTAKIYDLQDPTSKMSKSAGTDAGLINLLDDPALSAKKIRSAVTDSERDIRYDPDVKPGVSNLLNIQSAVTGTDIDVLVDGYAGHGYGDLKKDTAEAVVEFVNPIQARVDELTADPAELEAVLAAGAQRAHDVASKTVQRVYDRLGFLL

Leishmania in macrophages: 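Cell assay of Leishmania donovani living inside macrophages; the read-out is not stated. Concentration: 30 µM. The record gives no direction; compounds that gave an IC50 in retests scored well above the rest, so higher reads as stronger inhibition. About 69,000 compounds were tested under these conditions; 1.5% (about 1,000) showed 50% or more at least once.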
MtTrpRS: 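Enzyme assay of tryptophanyl-tRNA synthetase; the read-out is not stated. Target: Tryptophan-tRNA ligase, Mycobacterium tuberculosis (UniProt P9WFT3). Tested at 10 µM. Higher most likely means stronger inhibition; the record gives no direction and few retests gave an IC50. Of about 65,000 compounds tested this way, about 64 (0.098%) reached 50% or more in at least one test.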
T. brucei: 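Whole-parasite assay of Trypanosoma brucei over 72 hours; the read-out is not stated. Tested at 30 µM. Direction is inferred from retests: higher values go with stronger inhibition. Values scatter widely below zero; nearly all retest evidence comes from the higher of the two concentrations used. Size under these conditions: about 64,000 compounds, about 940 of them at 50% or above in at least one test.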

Compound: O=C1CSC(c2cccs2)c2cnn(C3CCCC3)c2N1 (centres undefined)
Leishmania in macrophages: -1.909
MtTrpRS: 1.608
T. brucei: 106.7

Compound: COCCn1cc(NC(=O)NC(C)c2ccc(Cl)s2)cn1 (centres undefined)
Leishmania in macrophages: -9.015
MtTrpRS: 0.4836
T. brucei: -16.3

Compound: O=C(NCC1OCCc2cn(CC3CC3)nc21)c1ccsc1 (centres undefined)
Leishmania in macrophages: 9.512
MtTrpRS: -0.7718
T. brucei: 104.3

Compound: CCOCc1nnc(NCc2cccnc2)o1
Leishmania in macrophages: 21.56
MtTrpRS: 0.3358
T. brucei: -8.709

Compound: Cc1c(Br)cccc1S(=O)(=O)NCc1ccnn1C
Leishmania in macrophages: 36.31
MtTrpRS: -5.263
T. brucei: 5.833

Compound: Cc1ccc2[nH]c(CNC(=O)C3CC4(CCNCC4)CN3C)nc2c1C (centres undefined)
Leishmania in macrophages: -32.19
MtTrpRS: 9.946
T. brucei: -11.35

Compound: O=C(Cn1ccc(=O)[nH]c1=O)Nc1ccccc1F
Leishmania in macrophages: 13.87
MtTrpRS: -2.271
T. brucei: -53.42

Compound: CC(=O)N1C[C@H]2CNC[C@@]2(C(=O)NCCNc2ccncc2C)C1
MtTrpRS: 1.102

Compound: Cc1cn2c(=O)c(-c3ccnc(N4CCC[C@@H]4CO)n3)cnc2s1
Leishmania in macrophages: 24.93 & 0.0224
T. brucei: 0.4374

Compound: CC(C)CCN1C2(CCN(Cc3nccs3)C2)c2ccccc2S1(=O)=O.O=C(O)C(F)(F)F (centres undefined)
Leishmania in macrophages: 26.96
T. brucei: 91.13

Compound: O=c1[nH]c2c(c(=O)n1C1CCCCC1)CCC2Nc1ccccn1 (centres undefined)
Leishmania in macrophages: 5.448
MtTrpRS: 0.4902
T. brucei: -13.88

Compound: COc1ccc2c(c1)OCC(CNC(=O)c1ccncc1)C2 (centres undefined)
Leishmania in macrophages: 24.21
MtTrpRS: 4.428
T. brucei: 22.19

Compound: O=C(O)C(F)(F)F.O=C(O)C(F)(F)F.[H][C@@]12CN(CCOC)C[C@]1([H])[C@@H](OC)CCN2Cc1ccc(C)o1
Leishmania in macrophages: 53
T. brucei: -24.6

Compound: CCc1ccsc1C(=O)N1CCN(CCN2C(=O)CCC2=O)CC1
Leishmania in macrophages: -1.984
MtTrpRS: -0.3975

Compound: CCc1ncnc2c1CCN(Cc1ccc(OC)cc1)CC2
MtTrpRS: 0.6711

Compound: COc1cccc(CC(C)NC(=O)NCc2ccn(C)c2)c1 (centres undefined)
Leishmania in macrophages: 8.381
MtTrpRS: 2.854
T. brucei: 3.847

Compound: O=C(c1cc2c([nH]c1=O)CCC2)N1CCCC1c1ccc(F)cc1 (centres undefined)
Leishmania in macrophages: 17.29
MtTrpRS: -6.458
T. brucei: 8.507

Compound: CC(=O)N1CCCc2cc(Nc3nccn(C)c3=O)ccc21
Leishmania in macrophages: -9.26
MtTrpRS: -5.635

Compound: N#CC1(NC(=O)COc2cc(Cl)cc(Cl)c2)CCSC1 (centres undefined)
Leishmania in macrophages: -18.43
MtTrpRS: 0.1432
T. brucei: -17.48

Compound: [H][C@@]12C[C@H](C)O[C@]1([H])CCN(C(=O)CC1CC1)C2
Leishmania in macrophages: 33.92
T. brucei: -296.3

Compound: O=C(Nc1ccc(F)cc1)C1CCc2ccccc2N1 (centres undefined)
Leishmania in macrophages: 11.07
MtTrpRS: -1.192
T. brucei: 3.01

Compound: COc1ccc(C[C@H]2CN(c3cc(OC)ncn3)CC[C@H]2OC)cc1.O=C(O)C(F)(F)F
Leishmania in macrophages: 24.01
T. brucei: -8.447

Compound: O=C(c1ccco1)N1CC[C@@H]2O[C@H](COCC3CCOCC3)CC[C@@H]21
MtTrpRS: 2.017

Compound: CN(Cc1ccsc1)Cc1nc(-c2cnccn2)no1
Leishmania in macrophages: 22.08
MtTrpRS: -6.539
T. brucei: 3.275

Compound: CN1CCN([C@H]2CCN(C(=O)c3cc(Cl)cn3C)C[C@H]2CCCO)CC1
Leishmania in macrophages: 12.52
MtTrpRS: 4.205
T. brucei: -46.67

Compound: O=C(c1cnccn1)N1CCN2C[C@H](OCc3ccccc3)C[C@H]2C1
MtTrpRS: 0.7229

Compound: O=C(O)C(F)(F)F.O=C(O)C(F)(F)F.[H][C@@]12CCC(=O)N(CCN(C)C)[C@]1([H])CCN2Cc1cccc(C#N)c1
Leishmania in macrophages: 17.33
T. brucei: -941.1

Compound: Cc1cc(C)cc(N2CCN(C(=O)CCN3C[C@@H]4CC[C@H]3C4)CC2=O)c1
MtTrpRS: -4.072

Compound: [H][C@]12CCC(=O)N(c3cccnc3)[C@@]1([H])CCN2C(=O)c1cnccn1
Leishmania in macrophages: 69.01
T. brucei: -28.66

Compound: O=C1CC(C(=O)O)C2(CCN(C(=O)Nc3ccccc3Cl)CC2)N1 (centres undefined)
Leishmania in macrophages: 34.85
MtTrpRS: -0.08842
T. brucei: -1.949

Compound: CCNC(=O)NC(=O)CNC1(c2noc(C)n2)CCCCC1
Leishmania in macrophages: -1.893
MtTrpRS: 12.18
T. brucei: -24.49

Compound: Cc1nc(C)n(CC2CCCN(Cc3cccc(F)c3F)C2)n1 (centres undefined)
Leishmania in macrophages: 14.18
MtTrpRS: -0.0684
T. brucei: -9.058

The last 2 entries again:

{"compound": "CCNC(=O)NC(=O)CNC1(c2noc(C)n2)CCCCC1", "Leishmania in macrophages": -1.893, "MtTrpRS": 12.18, "T. brucei": -24.49}
{"compound": "Cc1nc(C)n(CC2CCCN(Cc3cccc(F)c3F)C2)n1", "stereo": "centres undefined", "Leishmania in macrophages": 14.18, "MtTrpRS": -0.0684, "T. brucei": -9.058}

Data taken from ChEMBL document CHEMBL3988442, “University of Dundee, Small-Polar-MMV Screening Library” (2021).